Experiment [1] deals with protein arginine methyltransferase-3 (PRMT3) (human) (UniProt O60678). In words: co-IP; co-IP kit (absin abs955); lysate precleared with protein A and protein G, IP primary antibody or IgG overnight at 4°C, protein A/G overnight at 4°C, Western blot. In general terms: Immunoblotting shows a protein as a band on a membrane.
For experiment [2], the target named is transcription factor TFAP2A (human) (UniProt P05549). Description: cross-linking; 2 mmol/L disuccinimidyl suberate on PBS-cleaned cells, room temperature 30 minutes, stopped with Tris-HCl, cells lysed, Western blot; cells with PRMT3 overexpressed, knocked down or inhibited by SGC707.

Chains of the proteins cited; added tags and fusions are not shown. Lines headed by an entry give the natural chain unless they say otherwise; changes in a name come on top.
UniProt O60678: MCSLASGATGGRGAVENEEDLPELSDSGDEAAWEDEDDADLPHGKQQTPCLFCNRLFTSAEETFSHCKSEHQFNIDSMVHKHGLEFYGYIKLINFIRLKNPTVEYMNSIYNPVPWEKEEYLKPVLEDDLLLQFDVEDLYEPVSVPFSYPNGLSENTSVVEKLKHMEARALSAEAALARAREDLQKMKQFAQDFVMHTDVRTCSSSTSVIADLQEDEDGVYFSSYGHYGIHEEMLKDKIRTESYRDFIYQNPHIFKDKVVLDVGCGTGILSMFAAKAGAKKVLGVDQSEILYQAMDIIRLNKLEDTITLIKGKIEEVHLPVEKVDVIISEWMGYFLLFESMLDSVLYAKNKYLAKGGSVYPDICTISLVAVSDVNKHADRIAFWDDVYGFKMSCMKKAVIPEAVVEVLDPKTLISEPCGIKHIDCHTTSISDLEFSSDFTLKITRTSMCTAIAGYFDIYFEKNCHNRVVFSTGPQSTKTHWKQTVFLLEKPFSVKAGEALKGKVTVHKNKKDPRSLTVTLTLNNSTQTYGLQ
UniProt P05549: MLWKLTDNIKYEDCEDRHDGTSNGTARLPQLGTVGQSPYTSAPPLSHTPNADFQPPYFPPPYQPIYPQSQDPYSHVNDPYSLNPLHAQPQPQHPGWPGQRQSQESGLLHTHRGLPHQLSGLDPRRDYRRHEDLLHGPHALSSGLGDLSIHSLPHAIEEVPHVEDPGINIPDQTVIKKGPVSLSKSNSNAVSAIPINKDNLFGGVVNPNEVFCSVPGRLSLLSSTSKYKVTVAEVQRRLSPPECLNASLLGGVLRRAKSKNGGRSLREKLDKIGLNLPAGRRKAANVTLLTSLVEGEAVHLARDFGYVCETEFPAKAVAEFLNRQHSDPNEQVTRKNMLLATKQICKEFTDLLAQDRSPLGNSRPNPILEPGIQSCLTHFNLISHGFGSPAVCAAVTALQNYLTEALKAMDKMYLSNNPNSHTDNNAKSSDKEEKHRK
UniProt P14902: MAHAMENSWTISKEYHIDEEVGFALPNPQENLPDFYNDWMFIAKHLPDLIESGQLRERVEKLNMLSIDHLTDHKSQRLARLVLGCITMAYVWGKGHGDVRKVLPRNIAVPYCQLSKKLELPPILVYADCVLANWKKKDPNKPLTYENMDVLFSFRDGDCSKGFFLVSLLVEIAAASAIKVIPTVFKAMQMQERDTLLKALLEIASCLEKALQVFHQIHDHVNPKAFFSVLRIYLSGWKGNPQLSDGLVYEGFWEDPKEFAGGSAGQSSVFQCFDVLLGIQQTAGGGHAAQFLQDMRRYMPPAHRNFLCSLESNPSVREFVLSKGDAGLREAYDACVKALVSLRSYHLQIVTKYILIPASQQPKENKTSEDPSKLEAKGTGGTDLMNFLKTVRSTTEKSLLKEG

No constants are given. Whether binding was seen depends on the method and setting. In cells and extracts the contact can be indirect. Some entries that bind do so weakly or less than the wild type.

“TFAP2A R363K mutant (from UniProt P05549 1-437)”: the binding entry in experiment [1] was “no binding”.

Turning to “indoleamine 2,3-dioxygenase 1 (IDO1) (from UniProt P14902 1-403) (enzyme)”, the binding entry in experiment [1] is given as “no binding”.

Take “transcription factor TFAP2A (from UniProt P05549 1-437)”: the binding result in experiment [1] and in experiment [2] was “binds” each time.

Values taken from publication PMC12809119.
